# Assay results published in publication PMC9583166.
# The chains behind the UniProt entries cited, without tags or fusion partners. Residues count along the entry.
# UniProt Q9BPZ7, residues 266-373: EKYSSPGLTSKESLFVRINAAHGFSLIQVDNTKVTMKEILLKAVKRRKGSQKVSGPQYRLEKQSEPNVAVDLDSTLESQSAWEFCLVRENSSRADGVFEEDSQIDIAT
# These are yes or no findings as the source states them, for the method shown. In cells and extracts the contact can be indirect. Some binding calls cover weakened binding; strength is not graded here. Tags and fused reporters may be left off the sequences shown.
# B1: ERAS with FLAG-Tag (protein, UniProt Q7Z444 1-233)
# chain: MELPTKPGTFDLGLATWSPSFQGETHRAQARRRDVGRQLPEYKAVVVGASGVGKSALTIQLNHQCFVEDHDPTIQDSYWKELTLDSGDCILNVLDTAGQAIHRALRDQCLAVCDGVLGVFALDDPSSLIQLQQIWATWGPHPAQPLVLVGNKCDLVTTAGDAHAAAAALAHSWGAHFVETSAKTRQGVEEAFSLLVHEIQRVQEAMAKEPMARSCREKTRHQKATCHCGCSVA
# Assays:
# [1] = molecular target: GST-fused SIN1-RBD (not stated (the printed accession is a human entry)) (UniProt Q9BPZ7); test: pull-down; purified GST-fused RBDs on glutathione agarose beads, incubated 1 h with cell lysates with overexpressed FLAG-tagged GTPases; wash buffer 50 mM Tris-HCl, 150 mM NaCl, 10 mM MgCl2; immunoblot; only the target purified
# GST-fused RAF1-RBD = GST-fused RAF1-RBD (UniProt P04049); test: as above
binder,measurement,setting,value
B1,binding,[1],binds
same,binding,GST-fused RAF1-RBD,binds
